# In PMC5942357 (European Journal of Clinical Pharmacology, 2018):
# Where two headings read alike, the source gives them in different places.
# How the values were obtained:
# [1] = system: αvβ6 integrin; conditions: cited from earlier work
# [2] = over the range from 30 to 3000 mcg
# [3] = 4-week inhalation, all doses tested
# [4] = in vivo
# [5] = in vivo; remark: listed apart in the source
smiles,measurement,setting,value
Cc1cc(C)n(-c2cccc([C@H](CC(=O)O)CN3CC[C@@H](CCc4ccc5c(n4)NCCC5)C3)c2)n1 [GSK3008348],Receptor dissociation half-life,[1],~ 9 h
same,Treatment-related AEs: Any AE,"1 mcg, N = 6",2 (33) Number (%) of participants
same,Treatment-related AEs: Cough,"1 mcg, N = 6",1 (17) Number (%) of participants
same,Treatment-related AEs: Dizziness,"1 mcg, N = 6",0 Number (%) of participants
same,Treatment-related AEs: Headache,"1 mcg, N = 6",1 (17) Number (%) of participants
same,Treatment-related AEs: Lethargy,"1 mcg, N = 6",0 Number (%) of participants
same,Treatment-related AEs: Rhinorrhoea,"1 mcg, N = 6",0 Number (%) of participants
same,Treatment-related AEs: Any AE,"3 mcg, N = 6",0 Number (%) of participants
same,Treatment-related AEs: Cough,"3 mcg, N = 6",0 Number (%) of participants
same,Treatment-related AEs: Dizziness,"3 mcg, N = 6",0 Number (%) of participants
same,Treatment-related AEs: Headache,"3 mcg, N = 6",0 Number (%) of participants
same,Treatment-related AEs: Lethargy,"3 mcg, N = 6",0 Number (%) of participants
same,Treatment-related AEs: Rhinorrhoea,"3 mcg, N = 6",0 Number (%) of participants
same,Treatment-related AEs: Any AE,"10 mcg, N = 6",2 (33) Number (%) of participants
same,Treatment-related AEs: Cough,"10 mcg, N = 6",1 (17) Number (%) of participants
same,Treatment-related AEs: Dizziness,"10 mcg, N = 6",1 (17) Number (%) of participants
same,Treatment-related AEs: Headache,"10 mcg, N = 6",0 Number (%) of participants
same,Treatment-related AEs: Lethargy,"10 mcg, N = 6",1 (17) Number (%) of participants
same,Treatment-related AEs: Rhinorrhoea,"10 mcg, N = 6",0 Number (%) of participants
same,Treatment-related AEs: Any AE,"30 mcg, N = 6",0 Number (%) of participants
same,Treatment-related AEs: Cough,"30 mcg, N = 6",0 Number (%) of participants
same,Treatment-related AEs: Dizziness,"30 mcg, N = 6",0 Number (%) of participants
same,Treatment-related AEs: Headache,"30 mcg, N = 6",0 Number (%) of participants
same,Treatment-related AEs: Lethargy,"30 mcg, N = 6",0 Number (%) of participants
same,Treatment-related AEs: Rhinorrhoea,"30 mcg, N = 6",0 Number (%) of participants
same,Treatment-related AEs: Any AE,"100 mcg, N = 6",1 (17) Number (%) of participants
same,Treatment-related AEs: Cough,"100 mcg, N = 6",1 (17) Number (%) of participants
same,Treatment-related AEs: Dizziness,"100 mcg, N = 6",0 Number (%) of participants
same,Treatment-related AEs: Headache,"100 mcg, N = 6",0 Number (%) of participants
same,Treatment-related AEs: Lethargy,"100 mcg, N = 6",0 Number (%) of participants
same,Treatment-related AEs: Rhinorrhoea,"100 mcg, N = 6",0 Number (%) of participants
same,Treatment-related AEs: Any AE,"300 mcg, N = 6",1 (17) Number (%) of participants
same,Treatment-related AEs: Cough,"300 mcg, N = 6",0 Number (%) of participants
same,Treatment-related AEs: Dizziness,"300 mcg, N = 6",0 Number (%) of participants
same,Treatment-related AEs: Headache,"300 mcg, N = 6",0 Number (%) of participants
same,Treatment-related AEs: Lethargy,"300 mcg, N = 6",0 Number (%) of participants
same,Treatment-related AEs: Rhinorrhoea,"300 mcg, N = 6",1 (17) Number (%) of participants
same,Treatment-related AEs: Any AE,"1000 mcg, N = 12",0 Number (%) of participants
same,Treatment-related AEs: Cough,"1000 mcg, N = 12",0 Number (%) of participants
same,Treatment-related AEs: Dizziness,"1000 mcg, N = 12",0 Number (%) of participants
same,Treatment-related AEs: Headache,"1000 mcg, N = 12",0 Number (%) of participants
same,Treatment-related AEs: Lethargy,"1000 mcg, N = 12",0 Number (%) of participants
same,Treatment-related AEs: Rhinorrhoea,"1000 mcg, N = 12",0 Number (%) of participants
same,Treatment-related AEs at the highest doses,1000 or 3000 mcg,no treatment-related AEs were reported
same,Treatment-related AEs: Any AE,"3000 mcg, N = 11",0 Number (%) of participants
same,Treatment-related AEs: Cough,"3000 mcg, N = 11",0 Number (%) of participants
same,Treatment-related AEs: Dizziness,"3000 mcg, N = 11",0 Number (%) of participants
same,Treatment-related AEs: Headache,"3000 mcg, N = 11",0 Number (%) of participants
same,Treatment-related AEs: Lethargy,"3000 mcg, N = 11",0 Number (%) of participants
same,Treatment-related AEs: Rhinorrhoea,"3000 mcg, N = 11",0 Number (%) of participants
same,"12-lead ECG, telemetry and vital sign measurements outside normal ranges",all dose levels,not clinically significant
same,Clinical laboratory values,all dose levels,no clinically significant abnormal clinical laboratory values
same,Tolerability,"single doses up to 3000 mcg, healthy participants",well tolerated
same,Increase in dose normalised geometric mean Cmax,[2],less than 3 fold
same,Systemic toxicity,[3],No systemic toxicity
same,"Geometric coefficient of variance (CV) for AUC0-inf, inter-individual variability",[4]; human,19.8-52.5%
same,"Geometric coefficient of variance (CV) for AUC0-t, inter-individual variability",[4]; human,20.1-99.0%
same,"Geometric coefficient of variance (CV) for Cmax, inter-individual variability",[4]; human,16.6-106%
same,Plasma concentrations,[4]; human,"Note: all GSK3008348 plasma concentrations were non-quantifiable following administration of 1, 3, and 10 mcg GSK3008348"
same,Time post-dose at which plasma concentrations were measurable,[4]; human,0.25 to 4 h
same,Plasma concentrations,[4],not quantifiable
same,Lung retention after absorption from the lung,[5],no evidence of significant lung retention
